{"source": "PubChem BioAssay AID1259261 (Sanger Institute, 2017)", "purpose": "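Kinase knock-downs that kill colorectal cancer cells or boost targeted drugs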 (primary screen)", "system": "HCC2998 human colorectal cancer cells", "reagents": "siRNA pool against human genes", "treatment": "anchor drugs BYL719 1 µM, cetuximab 5 µg/ml or trametinib 10 nM, each compared with DMSO vehicle", "read-out": "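Viability as fraction of non-targeting control plus robust z-score without drug; synergy scores compare knock-down plus drug against each alone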", "reading the numbers": "viability z-score, knock-down alone: higher = more viable cells than controls", "rule for the call": "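a knock-down is called essential if its robust z-score without drug is under -3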", "calls": "active = essential; inactive = no change", "note": "This is a random part of 794 deposited reagents. 10 of them (1.3%) were called active. 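Calls reflect knock-down alone without drug; synergy scores with BYL719, cetuximab or trametinib do not affect calls.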 Unmarked entries are inactive. Not all columns of the deposit are shown. Not stated in the record: the amount of reagent, the time to read-out."}
{"gene":"EPHB2 (EPH receptor B2)","viability z-score, knock-down alone":0.472}
{"gene":"CDK7 (cyclin dependent kinase 7)","viability z-score, knock-down alone":0.702}
{"gene":"LMTK3 (lemur tail kinase 3)","viability z-score, knock-down alone":0.442}
{"gene":"CKB (creatine kinase B)","viability z-score, knock-down alone":0.356}
{"gene":"PLK1 (polo like kinase 1)","viability z-score, knock-down alone":"-4.26 (active)"}
{"gene":"PAPSS1 (3'-phosphoadenosine 5'-phosphosulfate synthase 1)","viability z-score, knock-down alone":1.21}
{"gene":"MAP3K3 (mitogen-activated protein kinase kinase kinase 3)","viability z-score, knock-down alone":-1.8}
{"gene":"ACVR2A (activin A receptor type 2A)","viability z-score, knock-down alone":-0.804}
{"gene":"STK39 (serine/threonine kinase 39)","viability z-score, knock-down alone":-0.921}
{"gene":"TP53RK (TP53 regulating kinase)","viability z-score, knock-down alone":1.13}
{"gene":"CDK15 (cyclin dependent kinase 15)","viability z-score, knock-down alone":0.986}
{"gene":"HK2 (hexokinase 2)","viability z-score, knock-down alone":-0.463}
{"gene":"NEK10 (NIMA related kinase 10)","viability z-score, knock-down alone":0.702}
{"gene":"DAPK1 (death associated protein kinase 1)","viability z-score, knock-down alone":-0.866}
{"gene":"STK35 (serine/threonine kinase 35)","viability z-score, knock-down alone":-0.216}
{"gene":"TBCK (TBC1 domain containing kinase)","viability z-score, knock-down alone":1.21}
{"gene":"NUP98 (nucleoporin 98 and 96 precursor)","viability z-score, knock-down alone":"-3.04 (active)"}
{"gene":"MAST4","viability z-score, knock-down alone":1.21}
{"gene":"PCK1 (phosphoenolpyruvate carboxykinase 1)","viability z-score, knock-down alone":0.377}
{"gene":"PIP5K1B (phosphatidylinositol-4-phosphate 5-kinase type 1 beta)","viability z-score, knock-down alone":0.402}
{"gene":"NUAK2 (NUAK family kinase 2)","viability z-score, knock-down alone":-0.314}
{"gene":"STK10 (serine/threonine kinase 10)","viability z-score, knock-down alone":1.21}
{"gene":"EGFR (epidermal growth factor receptor)","viability z-score, knock-down alone":-0.0177}
{"gene":"TPD52L3 (TPD52 like 3)","viability z-score, knock-down alone":1.13}
{"gene":"MKNK1 (MAPK interacting serine/threonine kinase 1)","viability z-score, knock-down alone":1.21}
{"gene":"TESK2 (testis associated actin remodelling kinase 2)","viability z-score, knock-down alone":0.214}
{"gene":"SGK1 (serum/glucocorticoid regulated kinase 1)","viability z-score, knock-down alone":0.0981}
{"gene":"NIM1K (NIM1 serine/threonine protein kinase)","viability z-score, knock-down alone":-0.529}
